For 2 molecules, binding results are on record in patent publication US20190225665A1.

These are yes or no findings as the source states them, for the method shown. Some results given as binding are weak or reduced against the parent protein; the word gives no strength.

Assay [1] addresses T1, IFN-λR1 (human) (UniProt Q8IU57).
T1 sequence (looked up): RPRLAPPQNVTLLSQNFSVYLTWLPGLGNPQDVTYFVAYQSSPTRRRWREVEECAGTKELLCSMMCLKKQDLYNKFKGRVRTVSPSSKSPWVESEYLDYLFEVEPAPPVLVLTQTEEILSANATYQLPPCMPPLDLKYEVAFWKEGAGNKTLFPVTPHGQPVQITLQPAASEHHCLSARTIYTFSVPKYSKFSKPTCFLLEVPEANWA
The assay is described as follows: yeast surface display, flow cytometry. On the technique in general: A flow cytometer gives signals particle by particle.

Assay [2] concerns the target T2, wild-type IFN-λ3 (human) (UniProt Q8IZI9).
T2 sequence: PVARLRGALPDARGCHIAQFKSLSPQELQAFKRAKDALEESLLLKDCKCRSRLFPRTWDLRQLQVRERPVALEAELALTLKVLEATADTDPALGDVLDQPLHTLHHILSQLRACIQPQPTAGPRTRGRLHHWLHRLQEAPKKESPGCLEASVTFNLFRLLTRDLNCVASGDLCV
As to the kind of experiment: flow cytometry of yeast-displayed wild-type IFN-λ3 stained with 50 nM streptavidin tetramers of IFN-λR1 (FL2, y-axis); IL-10Rβ monomer or tetramers also present.

B1: wild-type IFN-λ3 (ligand)
chain: T2 sequence
Take B1: the binding entry in assay [1] was “binds”.

B2: IFN-λR1 streptavidin tetramers (receptor, human, UniProt Q8IU57 21-228, looked up)
receptor chain presented on streptavidin: T1 sequence (looked up)
Take B2: the binding entry in assay [2] is “binds”.
